{
  "source": "paper PMC8384837",
  "note": "This is one part of the list.",
  "data": [
    {"molecular_target": "T1, PUM1 PUF domain R6-SWD R7-NPG N1043S + Y1044W + Q1047D + S1079N + N1080P + E1083G (Homo sapiens) (UniProt Q14671)", "T1 sequence": "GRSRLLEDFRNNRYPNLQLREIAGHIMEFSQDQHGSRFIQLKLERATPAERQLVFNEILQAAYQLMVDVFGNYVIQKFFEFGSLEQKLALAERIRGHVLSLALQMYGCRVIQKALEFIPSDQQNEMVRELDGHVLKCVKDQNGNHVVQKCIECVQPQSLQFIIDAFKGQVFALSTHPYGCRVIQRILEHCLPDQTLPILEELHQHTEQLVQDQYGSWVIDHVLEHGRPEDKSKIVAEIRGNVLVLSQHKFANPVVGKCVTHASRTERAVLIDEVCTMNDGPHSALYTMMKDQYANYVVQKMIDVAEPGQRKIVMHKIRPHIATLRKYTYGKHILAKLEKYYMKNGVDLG", "settings": "yeast three-hybrid, YBZ-1, SC-Leu-His + 0.5 mM 3-AT, 4 days", "values": [
      {"sequence": "GGCUAGAACUAGUGGAUCCCCCGGCGCCCGGCGGCUCGAGCCCGGGUAAGUGUCACUCGUCUGCAUGCCGCCGGGCGCCAUGCCUGCAGGUCGACUCUAGAAAACAUG", "binding signal (log2 enrichment (interaction score))": -0.64},
      {"sequence": "GGCUAGAACUAGUGGAUCCCCCGGCGCCCGGCGGCUCGAGCCCGGGUAAGAAUAAGACGUCUGCAUGCCGCCGGGCGCCAUGCCUGCAGGUCGACUCUAGAAAACAUG", "binding signal (log2 enrichment (interaction score))": -1.45},
      {"sequence": "GGCUAGAACUAGUGGAUCCCCCGGCGCCCGGCGGCUCGAGCCCGGGUAAGUUGGAAGAGUCUGCAUGCCGCCGGGCGCCAUGCCUGCAGGUCGACUCUAGAAAACAUG", "binding signal (log2 enrichment (interaction score))": -1.37},
      {"sequence": "GGCUAGAACUAGUGGAUCCCCCGGCGCCCGGCGGCUCGAGCCCGGGUAAGUCGGAUUGGUCUGCAUGCCGCCGGGCGCCAUGCCUGCAGGUCGACUCUAGAAAACAUG", "binding signal (log2 enrichment (interaction score))": -0.32},
      {"sequence": "GGCUAGAACUAGUGGAUCCCCCGGCGCCCGGCGGCUCGAGCCCGGGUAAGUGGCCACUGUCUGCAUGCCGCCGGGCGCCAUGCCUGCAGGUCGACUCUAGAAAACAUG", "binding signal (log2 enrichment (interaction score))": -0.74},
      {"sequence": "GGCUAGAACUAGUGGAUCCCCCGGCGCCCGGCGGCUCGAGCCCGGGUAAGAUGAUAUCGUCUGCAUGCCGCCGGGCGCCAUGCCUGCAGGUCGACUCUAGAAAACAUG", "binding signal (log2 enrichment (interaction score))": -1.36},
      {"sequence": "GGCUAGAACUAGUGGAUCCCCCGGCGCCCGGCGGCUCGAGCCCGGGUAAGUGGAUGAAGUCUGCAUGCCGCCGGGCGCCAUGCCUGCAGGUCGACUCUAGAAAACAUG", "binding signal (log2 enrichment (interaction score))": -0.48},
      {"sequence": "GGCUAGAACUAGUGGAUCCCCCGGCGCCCGGCGGCUCGAGCCCGGGUAAGUUCAAUGAGUCUGCAUGCCGCCGGGCGCCAUGCCUGCAGGUCGACUCUAGAAAACAUG", "binding signal (log2 enrichment (interaction score))": -1.28}
    ]}
  ]
}
